Reference: PubChem BioAssay AID624297 (National Center for Advancing Translational Sciences (NCATS), 2012)
About 6,200 (1.8%) of roughly 340,000 compounds were called active. The shares of active, inactive and inconclusive entries below differ from those in the screen. Calls come from the whole dose curve; as a rule, active = well fitted activation curve with a large enough effect; inconclusive = small, poorly fitted or top-dose-only effect; inactive = no such curve, though single readings can be large or run the other way. A potency beside an inconclusive call is a rough fit, not a confirmed value.
Potency is the fitted concentration of half-maximal effect.

Assay: A quantitative high throughput screen for small molecules that induce DNA re-replication in SW480 colon adenocarcinoma cells. For re-replication activation: % of control where 0% means no effect. Note: nearly all actives have a fitted effect of over 55% in size.
Details: Hoechst DNA content imaging, 48 h; re-replication activation: at 46.1 µM (top of the series) unless noted
Method in brief: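 SW480 cells exposed to compounds for 48 hr at 37 C, 5% CO2, then Hoechst-stained 40 min. Nuclear DNA content imaged by fluorescence scanning (405 nm excitation, 500-530 nm emission); re-replication scored as increased high-intensity nuclei.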
In the case of `COc1ccc(/C=C/C(=O)O)cc1S(=O)(=O)NC1CCS(=O)(=O)C1` (stereo unspecified), the Potency is reported as “inactive”. For `COc1ccc(-c2cc3nc(C)c(CCC(=O)N4CCN(c5ccccn5)CC4)c(C)n3n2)c(OC)c1`, the Potency was inconclusive: 0.0731 µM [activator, full curve, poor fit]. With `N=c1c2c(-c3ccccc3)c(-c3ccccc3)oc2ncn1CCCN1CCOCC1` the Potency was inconclusive: 16.4 µM [activator, single point]. For `CN1c2ccccc2C(C)(C)C12C=Nc1c(cc(N3CCOCC3)c3ccccc13)O2` (stereo unspecified), the Potency was active: 20.6 µM. For `O=C(CC1SC2=NCCN2C1=O)Nc1ccc(Br)cc1` (stereo unspecified), the Potency was “inactive”. For `Cc1cccc(NC(=O)c2cc(Cl)nc3ccccc23)n1`, the Potency was inconclusive: 29.1 µM [activator, single point]. In the case of `CCCc1nc2sc3ccccc3c(=O)c2c(=O)n1Cc1ccccc1`, the Potency is reported as inconclusive: 6.51 µM [activator, single point]. With `C/C(=N\N=C1\NC(=O)C(CC(=O)O)S1)c1ccccn1` (stereo unspecified) the Potency was inconclusive: 5.17 µM [activator, full curve]. With `Cc1ccc(F)cc1NC(=S)NCCc1ccccc1` the Potency was inconclusive: 29.1 µM [activator, single point]. In the case of `Cc1ccc(C(=O)C=Cc2cccc(C)c2)cc1`, the Potency is reported as inconclusive: 29.1 µM [activator, single point]. In the case of `Cc1onc(-c2ccccc2)c1CNS(=O)(=O)c1ccccc1`, the Potency is reported as inconclusive: 5.8 µM [activator, full curve]. With `CN1CCN(c2nc(Nc3ccc(F)cc3)nc(Nc3ccc(F)cc3)n2)CC1` the Potency was inconclusive: 16.4 µM [activator, single point]. With `CCCCCCc1cc2cc(-c3nnc(-c4ccccc4O)o3)c(=O)oc2cc1O` the Potency was active: 2.31 µM. With `COc1ccc(/C=N/NC(=O)c2ccc(OC)c(OC)c2)cc1COc1c(F)c(F)c(F)c(F)c1F` the Potency was “inactive”. With `O=C(N/N=C/c1ccccn1)c1cc(-c2ccncc2)nc2ccccc12` the Potency was “inactive”. With `Cc1ccc([N+](=O)[O-])cc1N=Nc1c(C)[nH]n(C(N)=S)c1=O` the Potency was “inactive”. For `CC(C)OCCCn1c(-c2ccco2)nc2nc3ccccc3nc21`, the Potency was inconclusive: 25.9 µM [activator, partial curve, poor fit]. With `CCOc1ccc2nc(N3CCCC(C(=O)NCCCN4CC(C)CC(C)C4)C3)sc2c1` (stereo unspecified) the Potency was inconclusive: 29.1 µM [activator, single point]. In the case of `O=C1Nc2c(c(=O)[nH]c(=O)n2-c2ccc(F)cc2)C1(NS(=O)(=O)c1ccccc1)C(F)(F)F` (stereo unspecified), the Potency is reported as “inactive”. For `O=C(/C=C\c1ccco1)Nc1cc([N+](=O)[O-])ccc1F`, the Potency was active: 0.58 µM. For `Nc1ccn(CC(=O)NCc2ccc3[nH]ccc3c2)c(=O)n1`, the Potency was “inactive”. For `CN(Cc1ccnc2ccccc12)C(=O)C1CCC(=O)N(Cc2ccccc2F)C1` (stereo unspecified), the Potency was “inactive”. For `O=S(=O)(Nc1cccc(Oc2ccc(Cl)cc2)n1)c1ccc(F)cc1`, the Potency was inconclusive: 18.4 µM [activator, single point]. For `CC(C)(C)C(=O)Nc1nc2c(s1)CN(Cc1ccccc1)CC2`, the Potency was inconclusive: 32.6 µM [activator, partial curve, poor fit]. For `COc1ccc(CCC(=O)NNC(=O)c2cc(Cl)ccc2OC)cc1`, the Potency was “inactive”. With `CC(C)(C)OC(=O)NCCOC(=O)c1[nH]cnc1C(=O)NCc1ccccc1` the Potency was inconclusive: 29.1 µM [activator, single point]. For `COC(=O)C(Cc1c[nH]c2ccccc12)NC(=O)c1cccs1` (stereo unspecified), the Potency was inconclusive: 20.6 µM [activator, single point]. With `CS(=O)(=O)N1CCC(C(=O)Nc2cccc(Cl)c2)CC1` the Potency was “inactive”. For `COc1ccc(S(=O)(=O)Nc2ccc(O)c3ccccc23)cc1`, the Potency was inconclusive: 20.6 µM [activator, partial curve, poor fit]. With `CCOc1ccc2nc(C)cc(Nc3cccc([N+](=O)[O-])c3)c2c1` the Potency was inconclusive: 29.1 µM [activator, single point]. For `COCCOC(=O)/C(=C\c1cc(C(C)(C)C)c(O)c(C(C)(C)C)c1)C(C)=O`, the Potency was inconclusive: 29.1 µM [activator, single point]. With `COC(=O)c1c(NC(=O)C2COc3ccccc3O2)sc2c1CCN(Cc1ccccc1)C2` (stereo unspecified) the Potency was “inactive”. For `O=c1c2cc(Cl)ccc2[nH]c(=S)n1Cc1ccco1`, the Potency was inconclusive: 8.2 µM [activator, partial curve]. With `Oc1cc(-c2cccnc2)cc2cccnc12` the Potency was inconclusive: 6.51 µM [activator, single point]. In the case of `Cc1ccccc1CS(=O)(=O)c1cn(CC(=O)N2CCC(C)CC2)c2ccccc12`, the Potency is reported as “inactive”. With `CC(C)CCNC(=O)Cc1csc(-c2ccccc2)n1` the Potency was inconclusive: 6.51 µM [activator, partial curve, poor fit]. In the case of `COc1ccc(/C=C/C(=O)c2cc3c(cc2N)OCO3)cc1`, the Potency is reported as inconclusive: 29.1 µM [activator, single point]. With `COc1ccc(NC(=O)c2cc([N+](=O)[O-])ccc2N2CCCC2)cc1S(N)(=O)=O` the Potency was “inactive”. With `CN1CCN(Cc2cccc(Oc3ccc(Cl)cc3)c2)CC1` the Potency was “inactive”. With `CC1CCC(C(C)C)C(OP(=O)(c2ccc(N(C)C)cc2)C(O)c2cccnc2)C1` (stereo unspecified) the re-replication activation was inconclusive: 431% [activator]. With `COc1ccc(C(=O)CC(=O)C(=O)Nc2cc([N+](=O)[O-])ccc2OC)cc1` the Potency was “inactive”. For `Cc1ccc(CNCC(O)(c2ccc(F)cc2)c2ccc(F)cc2)cc1`, the Potency was inconclusive: 7.31 µM [activator, partial curve, poor fit]. In the case of `CC(C)Oc1ccc(C(=O)Nc2ccc(S(=O)(=O)N3CCN(C)CC3)cc2)cc1`, the Potency is reported as inconclusive: 29.1 µM [activator, single point]. With `Cc1c(C(=O)N(C)C)c2ccc(Cl)cc2n1O` the Potency was “inactive”. With `Cn1c(=O)c(C(=O)CN2CCCCC2)c(N)n(Cc2ccccc2)c1=O` the Potency was inconclusive: 14.6 µM [activator, single point]. In the case of `CNc1oc(-c2cccc3ccccc23)nc1C#N`, the Potency is reported as inconclusive: 11.6 µM [activator, partial curve].
